Laboratory results reported in patent publication US20170129920 (published 2017).

Test: general procedure: solution-phase peptide synthesis; TBTU / N-methylmorpholine

Substance | final purity (method not given) (late stage modification step, acetate) | final purity (method not given) (coupling step, acetate salt (3AcOH))
H-D-Arg-DMeTyr-Lys-Phe-NH2.3AcOH | higher than 98.5% | 
Z-D-Arg-Dmt(Bzl)-Lys(Z)-Phe-NH2 |  | close to 99%
